The labels stand for the following.
T1: GS-MAX2 (MORE AXILLARY GROWTH 2, N-terminal GS tag) (Arabidopsis thaliana) (UniProt Q9SIM9)
T1 sequence: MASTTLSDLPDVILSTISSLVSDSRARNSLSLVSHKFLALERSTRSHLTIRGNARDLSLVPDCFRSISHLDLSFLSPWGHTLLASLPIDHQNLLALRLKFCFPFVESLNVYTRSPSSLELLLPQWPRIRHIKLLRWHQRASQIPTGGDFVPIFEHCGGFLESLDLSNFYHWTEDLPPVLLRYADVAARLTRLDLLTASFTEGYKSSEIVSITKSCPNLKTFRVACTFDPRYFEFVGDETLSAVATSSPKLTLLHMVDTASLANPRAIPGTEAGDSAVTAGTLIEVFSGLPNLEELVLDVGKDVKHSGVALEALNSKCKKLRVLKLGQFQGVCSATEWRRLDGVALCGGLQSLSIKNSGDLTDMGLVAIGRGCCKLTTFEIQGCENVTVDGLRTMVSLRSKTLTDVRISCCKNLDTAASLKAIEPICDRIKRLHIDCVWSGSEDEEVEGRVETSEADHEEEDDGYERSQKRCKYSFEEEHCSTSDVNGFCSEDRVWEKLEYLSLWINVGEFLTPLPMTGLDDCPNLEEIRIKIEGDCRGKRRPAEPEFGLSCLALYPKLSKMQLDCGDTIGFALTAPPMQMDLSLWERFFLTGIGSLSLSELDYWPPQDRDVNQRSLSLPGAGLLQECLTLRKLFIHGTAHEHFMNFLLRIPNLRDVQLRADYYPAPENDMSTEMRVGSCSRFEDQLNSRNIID

Amino acid sequences for entries named in this document (tags omitted).
UniProt Q8LAZ7: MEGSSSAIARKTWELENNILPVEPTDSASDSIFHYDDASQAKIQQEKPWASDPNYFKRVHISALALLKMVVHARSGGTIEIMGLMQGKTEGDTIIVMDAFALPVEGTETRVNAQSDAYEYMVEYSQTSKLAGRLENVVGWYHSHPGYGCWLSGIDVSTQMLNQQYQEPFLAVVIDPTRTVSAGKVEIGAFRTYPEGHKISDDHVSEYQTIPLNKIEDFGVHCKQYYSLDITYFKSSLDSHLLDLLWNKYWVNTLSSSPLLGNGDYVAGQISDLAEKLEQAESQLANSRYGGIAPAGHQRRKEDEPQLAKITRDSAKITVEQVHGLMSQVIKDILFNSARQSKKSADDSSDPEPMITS
UniProt Q39255: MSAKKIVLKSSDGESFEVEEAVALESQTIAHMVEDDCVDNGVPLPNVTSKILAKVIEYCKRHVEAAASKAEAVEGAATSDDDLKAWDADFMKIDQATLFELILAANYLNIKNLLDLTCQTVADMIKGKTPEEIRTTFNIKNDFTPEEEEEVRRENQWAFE
UniProt Q94AH6: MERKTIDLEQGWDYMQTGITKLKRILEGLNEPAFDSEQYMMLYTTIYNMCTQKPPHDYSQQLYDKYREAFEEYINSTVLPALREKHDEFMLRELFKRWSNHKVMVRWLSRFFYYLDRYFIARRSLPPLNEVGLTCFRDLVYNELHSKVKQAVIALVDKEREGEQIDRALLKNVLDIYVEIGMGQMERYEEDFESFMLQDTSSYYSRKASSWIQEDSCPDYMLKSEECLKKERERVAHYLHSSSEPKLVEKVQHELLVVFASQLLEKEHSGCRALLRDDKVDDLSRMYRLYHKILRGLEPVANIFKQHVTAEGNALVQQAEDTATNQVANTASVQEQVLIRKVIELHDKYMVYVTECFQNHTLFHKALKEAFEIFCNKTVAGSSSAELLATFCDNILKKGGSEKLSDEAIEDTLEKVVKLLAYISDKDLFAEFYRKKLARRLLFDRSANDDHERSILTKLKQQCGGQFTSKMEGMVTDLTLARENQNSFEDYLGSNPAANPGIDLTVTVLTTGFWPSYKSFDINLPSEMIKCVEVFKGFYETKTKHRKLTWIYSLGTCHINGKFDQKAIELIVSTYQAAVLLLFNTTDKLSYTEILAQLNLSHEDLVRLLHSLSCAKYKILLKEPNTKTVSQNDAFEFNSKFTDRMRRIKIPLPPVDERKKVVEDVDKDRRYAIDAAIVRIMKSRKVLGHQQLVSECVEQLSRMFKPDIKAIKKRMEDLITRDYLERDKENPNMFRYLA

T2: GS-MAX2ΔFBOX (MAX2 without its first 53 amino acids, N-terminal GS tag) (Arabidopsis thaliana) (UniProt Q9SIM9)
T2 sequence: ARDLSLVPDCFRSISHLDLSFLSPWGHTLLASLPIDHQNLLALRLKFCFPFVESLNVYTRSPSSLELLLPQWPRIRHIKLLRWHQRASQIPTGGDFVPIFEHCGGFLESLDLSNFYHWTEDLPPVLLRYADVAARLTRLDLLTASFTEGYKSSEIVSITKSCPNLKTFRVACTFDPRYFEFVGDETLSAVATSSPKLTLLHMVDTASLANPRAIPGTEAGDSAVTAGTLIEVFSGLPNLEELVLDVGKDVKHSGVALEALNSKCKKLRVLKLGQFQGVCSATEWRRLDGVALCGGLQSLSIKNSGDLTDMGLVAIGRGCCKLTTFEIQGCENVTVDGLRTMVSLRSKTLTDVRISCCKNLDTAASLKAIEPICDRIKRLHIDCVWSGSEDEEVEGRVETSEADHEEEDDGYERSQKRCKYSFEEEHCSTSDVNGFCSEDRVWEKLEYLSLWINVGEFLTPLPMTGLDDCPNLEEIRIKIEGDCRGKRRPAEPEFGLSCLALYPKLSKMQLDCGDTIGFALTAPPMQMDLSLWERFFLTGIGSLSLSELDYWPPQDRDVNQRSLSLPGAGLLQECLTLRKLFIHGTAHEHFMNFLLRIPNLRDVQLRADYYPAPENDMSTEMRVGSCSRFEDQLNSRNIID

B1: PFD2 (protein, UniProt Q9LJ98 1-148)
chain: MASKSGSGGLREPPNEQAVLNMYEGKRSELSQIYSNITDLEMQVSEHSLVINAIQPLDQSRKCFRMIGGVLVERTIKEVLPAVQRNKDGLEEVVRKLYETLEKKKKDLTEFEAKYKIRITKQEDNKEGGNKKEGNAQGVLVGAASSSQ
B2: CSN6A (protein, UniProt Q8W206 1-317)
chain: MAPSSSSGLTFKLHPLVIVNISDHYTRVKTQLNPPASICASGHGSNNGEAMFQQNPRVYGCVIGVQRGRTVEIFNSFELLYDPSTQTLDRSFLEKKQELYKKVFPDFYILGWYSTGSDAEESDMHIHKALMDINESPVYVLLNPAINHTQKDLPVTIYESELHVIDGIPQLIFAHTSYTIETVEAERISVDHVAHLKPSDGGSAATQLAAHLTGIHSAIKMLNSRIRVLYQNLAAMQKGDKSCDNSVLRQVSSLLRRLPAMESERFQDNFLMEYNDKLLITYLAMITNCSSNMNEMVDKFNTAYDRNTRRGGRTAFM
B3: KARRIKIN … 2 (KAI2), endogenous (receptor, UniProt Q9SZU7 1-270)
chain: MGVVEEAHNVKVIGSGEATIVLGHGFGTDQSVWKHLVPHLVDDYRVVLYDNMGAGTTNPDYFDFDRYSNLEGYSFDLIAILEDLKIESCIFVGHSVSAMIGVLASLNRPDLFSKIVMISASPRYVNDVDYQGGFEQEDLNQLFEAIRSNYKAWCLGFAPLAVGGDMDSIAVQEFSRTLFNMRPDIALSVGQTIFQSDMRQILPFVTVPCHILQSVKDLAVPVVVSEYLHANLGCESVVEVIPSDGHLPQLSSPDSVIPVILRHIRNDIAM
B4: CSN1 (protein, UniProt P45432 1-441)
chain: MERDEEASGPMMEMCTNGGEETSNRRPIISGEPLDIEAYAALYKGRTKIMRLLFIANHCGGNHALQFDALRMAYDEIKKGENTQLFREVVNKIGNRLGEKYGMDLAWCEAVDRRAEQKKVKLENELSSYRTNLIKESIRMGYNDFGDFYYACGMLGDAFKNYIRTRDYCTTTKHIIHMCMNAILVSIEMGQFTHVTSYVNKAEQNPETLEPMVNAKLRCASGLAHLELKKYKLAARKFLDVNPELGNSYNEVIAPQDIATYGGLCALASFDRSELKQKVIDNINFRNFLELVPDVRELINDFYSSRYASCLEYLASLKSNLLLDIHLHDHVDTLYDQIRKKALIQYTLPFVSVDLSRMADAFKTSVSGLEKELEALITDNQIQARIDSHNKILYARHADQRNATFQKVLQMGNEFDRDVRAMLLRANLLKHEYHARSARKL
B5: ASK4 (protein, UniProt Q9LNT9 1-163)
chain: MAETKKMIILKSSDGESFEIEEAVAVKSQTIKHMIEDDCADNGIPLPNVTGAILAKVIEYCKKHVEAAAEAGGDKDFYGSAENDELKNWDSEFVKVDQPTLFDLILAANYLNIGGLLDLTCKAVADQMRGKTPEQMRAHFNIKNDYTPEEEAEVRNENKWAFE
B6: FUS12 (protein, UniProt Q8W207 1-439)
chain: MASDADMEDYGFEYSDEEQEEQDVDIENQYYNSKGMVETEPEEALSGFAEVVQMEPEKADWGFKALKQTVKIYYRLGKYKEMMEAYTEMLTYIKSAVTRNYSEKCINNIMDFVSGSASQNTGLLQEFYQTTLKALEEAKNERLWFKTNLKLCNIWFDIGEYRRMTKILKELHKSCQKEDGTDDQKKGSQLLEVYAIEIQIYTETKDNKKLKQLYHKALAIKSAIPHPRIMGIIRECGGKMHMAERQWEEAATDFFEAFKNYDEAGNQRRIQCLKYLVLANMLMESEVNPFDGQEAKPYKNDPEILAMTNLIAAYQRNEIIEFERILKSNRRTIMDDPFIRNYMEDLLKKVRTQVLLKLIKPYTKIGIPFISKELNVPETDVTELLVSLILDSRIDGHIDEMNRYLLRGDSGNGRKLHKAVDKWNSQLKSLSSNITSRVC
B7: COP13 (protein, UniProt Q8W575 1-429)
chain: MIGAVNSVEAVITSIQGLSGSPEDLSALHDLLRGAQDSLRAEPGVNFSTLDQLDASKHSLGYLYFLEVLTCGPVSKEKAAYEIPIIARFINSCDAGQIRLASYKFVSLCKILKDHVIALGDPLRGVGPLLNAVQKLQVSSKRLTALHPDVLQLCLQAKSYKSGFSILSDDIVEIDQPRDFFLYSYYGGMICIGLKRFQKALELLYNVVTAPMHQVNAIALEAYKKYILVSLIHNGQFTNTLPKCASTAAQRSFKNYTGPYIELGNCYNDGKIGELEALVVARNAEFEEDKNLGLVKQAVSSLYKRNILRLTQKYLTLSLQDIANMVQLGNAKEAEMHVLQMIQDGQIHALINQKDGMVRFLEDPEQYKSSEMIEIMDSVIQRTIGLSKNLLAMDESLSCDPLYLGKVGRERQRYDFGDDFDTVPQKFSM
B8: PFD3 (protein, UniProt P57741 1-195)
chain: MSSSSPSGSGSDLTERRGIPAAKFIQDVETYLSQSGLDPNSALAFHQERLQQYKVVEMKLLAQQRDLQAKIPDIEKCLEVVATLEAKKGTGEALLADFEVSEGIYSRACIEDTDSVCLWLGANVMLEYSCEEASALLKNNLENAKASLEVLVADLQFLRDQVTVTQVTIARVYNWDVHQRRVKQVTPTAIAVADS
B9: ATSGT1B (protein, UniProt Q9SUT5 1-358)
chain: MAKELAEKAKEAFLDDDFDVAVDLYSKAIDLDPNCAAFFADRAQANIKIDNFTEAVVDANKAIELEPTLAKAYLRKGTACMKLEEYSTAKAALEKGASVAPNEPKFKKMIDECDLRIAEEEKDLVQPMPPSLPSSSTTPLATEADAPPVPIPAAPAKPMFRHEFYQKPEEAVVTIFAKKVPKENVTVEFGEQILSVVIDVAGEEAYHLQPRLFGKIIPEKCRFEVLSTKVEIRLAKAEIITWASLEYGKGQSVLPKPNVSSALSQRPVYPSSKPAKDWDKLEAEVKKQEKDEKLDGDAAMNKFFSDIYSSADEDMRRAMNKSFAESNGTVLSTNWKEVGTKKVESTPPDGMELKKWEY
B10: ASK13 (protein, UniProt Q9M1X5 1-154)
chain: MSKMVMLLSSDGESFQVEEAVAVQSQTIAHMIEDDCVANGVPIANVTGVILSKVIEYCKKHVVSDSPTEESKDELKKWDAEFMKALEQSSTLFDVMLAANYLNIKDLLDLGCQTVADMITGKKPDEIRALLGIENDFTPEEEEEIRKENQWAFE
B11: COP8 (protein, UniProt Q8L5U0 1-397)
chain: MDEALTNASAIGDQRQKIEQYKLILSSVLSSNDLLQAQRFIDHILSDDVPLVVSRQLLQSFAQELGRLEPETQKEIAQFTLTQIQPRVVSFEEQALVIREKLAGLYESEQEWSKAAQMLSGIDLDSGMRAVDDNFKLSKCIQIARLYLEDDDAVNAEAFINKASFLVSNSQNEVLNLQYKVCYARILDMKRKFLEAALRYYGISQIEQRQIGDEEIDENALEQALSAAVTCTILAGAGPQRSRVLATLYKDERCSKLKIYPILQKVYLERILRRPEIDAFSEELRPHQKASLPDKSTVLDRAMIEHNLLSASKLYTNIRFDELGTLLAIDPRKAEKIAANMIGQDRMRGSIDQEEAVIHFEDDVEELQQWDQQISGLCQALNDILDGMAKKGMSVPV

These are yes or no findings as the source states them, for the method shown. Binding seen in cells or lysates may run through a third protein. These calls come from enrichment with a bait or labelling near it, and not all partners need be listed. No binding means not detected with the bait. Tags and fused reporters may be left off the sequences shown.

The target in one assay is T1, GS-MAX2 (MORE AXILLARY GROWTH 2, N-terminal GS tag) (Arabidopsis thaliana). The experiment in a line: affinity purification with mass spectrometry; tandem affinity purification (IgG-Sepharose, AcTEV, streptavidin beads) of the N-terminally GS-tagged bait from Arabidopsis PSB-D cell culture extracts; cells treated 5 h with 0.01% acetone (mock) or 1 μM rac-GR24; two replicates each; LC-MS/MS; background proteins filtered out.
Turning to CSN5A (from UniProt Q8LAZ7 1-357), the binding entry was “binds”. Regarding SKP1 (from UniProt Q39255 1-160), the binding result was “binds”.

On to CUL1 (from UniProt Q94AH6 1-738), for which the binding result is “binds”.

On to B1, for which the binding result is “no binding”. Same read-out and setting: then B2, with “binds”; and B3, with “no binding”.

Consider B4, for which the binding entry is “binds”. On the same count and under the same terms, under B5 stands “binds”; under B6, “binds”; under B7, “binds”. Turning to B8, the binding result is “no binding”.

In the case of B9, the binding result is “no binding”. On the same count and under the same terms, under B10 stands “binds”; under B11, “binds”.

For the next assay, the target named is T2, GS-MAX2ΔFBOX (MAX2 without its first 53 amino acids, N-terminal GS tag) (Arabidopsis thaliana). Described as above.
On to CSN5A (from UniProt Q8LAZ7 1-357), for which the binding result is on record as “no binding”. On the same count and under the same terms, under SKP1 (from UniProt Q39255 1-160) stands “no binding”; under CUL1 (from UniProt Q94AH6 1-738), “no binding”; under B1, “binds”.

With B2, the binding entry is “no binding”. The same measure, in the same setting: under B4 stands “no binding”; under B5, “no binding”; under B6, “no binding”. Same read-out and setting: under B7 stands “no binding”; under B8, “binds”. Take B9: the binding result is given as “binds”. Still for that read-out and setting: under B10 stands “no binding”. Still for that read-out and setting: then B11, with “no binding”.

Values taken from publication PMC7950214.
